Earlier results as cited in article PMC3735429, “Plasmodium falciparum encodes a conserved active inhibitor-2 for Protein Phosphatase type 1: perspectives for novel anti-plasmodial therapy” (BMC Biology, 2013).

Tested on: Plasmodium falciparum
Set-up: method as in PMID 9636646, PMID 7957765, PMID 8698101
Conditions: ref [1]-[3]; cited from earlier work
From the text: During its life cycle, Plasmodium falciparum, the deadliest malaria parasite for humans, undergoes several successive rounds of mitosis to amplify parasite populations and consequently to increase the rate of its transmission. Among the essential actors in the growth and division of the parasite are kinases and phosphatases. […] Subsequently, the identification of kinases and phosphatases and their central functions in P. falciparum[4-9] ...

Question: For `CN[C@@H]1C[C@H]2O[C@@](C)([C@@H]1OC)n1c3ccccc3c3c4c(c5c6ccccc6n2c5c31)C(=O)NC4` [staurosporine], which “inhibition of parasite growth in vitro” value is on record?
Answer: Its value is “drastically inhibited parasite growth in vitro”.
